Measurements reported in the supplement of paper PMC7024190.
Structures can show the parent of a compound that is named as a salt. The list shows a part of the results. Single values are uncertain here, since repeats match poorly.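 A first-round screen of about ten thousand compounds sought those raising reporter output, using human embryonic kidney cells briefly transfected with a plasmid carrying a Renilla luciferase gene driven by the HSV-TK promoter.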

Each molecule was assayed on HEK 293FT (assay: log relative Renilla luciferase luminescence (reporter expression vs reference, reference not stated) (log (base not stated)); higher = higher recombinant reporter expression). Conditions: 10 µM; time after transfection 48 h.

Structure (SMILES)	log
CCCc1nc2c(C)cc(-c3nc4ccccc4n3C)cc2n1Cc1ccc(-c2ccccc2C(=O)O)cc1 [Telmisartan]	-0.0336
N=C(N)N1CCc2ccccc2C1 [Debrisoquin sulfate]	0.0943
CC(=O)/N=c1/sc(S(N)(=O)=O)nn1C [Methazolamide]	-0.141
CCCCC1C(=O)N(c2ccccc2)N(c2ccccc2)C1=O [Phenylbutazone]	-0.159
O=C(Nc1ccccc1)OCC(CN1CCCCC1)OC(=O)Nc1ccccc1 (configuration not stated) [Diperodon hydrochloride]	0.0619
CCCC(=O)Nc1ccc(OCC(O)CNC(C)C)c(C(C)=O)c1 (configuration not stated) [Acebutolol hydrochloride]	0.121
CN1[C@@H]2CC[C@H]1C[C@@H](OC(c1ccccc1)c1ccccc1)C2 [Benztropine mesylate]	0.0732
CC(=O)Nc1ccc(OCC(O)CNC(C)C)cc1 (configuration not stated) [Practolol]	-0.0642
CC(=O)OCC(=O)[C@@]12OC3(CCCC3)O[C@@H]1C[C@H]1[C@@H]3CCC4=CC(=O)C=C[C@]4(C)[C@@]3(F)[C@@H](O)C[C@@]12C [Amcinonide]	-0.159
N=C(N=C(N)N)N1CCOCC1 [Moroxidine hydrochloride]	0.0466
Cc1cccc(C)c1NC(=O)CN1CCN(CCCC(c2ccc(F)cc2)c2ccc(F)cc2)CC1 [Lidoflazine]	-0.293
CC(=O)O[C@]1(C(C)=O)CC[C@H]2[C@@H]3C=C(C)C4=CC(=O)CC[C@]4(C)[C@H]3CC[C@@]21C [Megestrol acetate]	-0.0173
CC[C@@]1(O)C(=O)OCc2c1cc1n(c2=O)Cc2cc3c(CN(C)C)c(O)ccc3nc2-1 [Topotecan]	-0.415
Nc1nnc(-c2cccc(Cl)c2Cl)c(N)n1 [Lamotrigine]	-0.0127
Clc1cc(Cl)c(OCC#CI)cc1Cl [Haloprogin]	-0.162
Nc1nc(=O)[nH]cc1F [Flucytosine]	0.126
CC(=O)NC[C@H]1CN(c2ccc(N3CCOCC3)c(F)c2)C(=O)O1 [Linezolid]	-0.117
Cc1nccn1CC1CCc2c(c3ccccc3n2C)C1=O (configuration not stated) [Ondansetron Hydrochloride]	0.00137
O=C1C(O)=C(O)C(=O)C(O)=C1O [Tetrahydroxy-1,4-quinone monohydrate]	-0.157
COc1ccc2c(c1)c(CC(=O)OCC(=O)O)c(C)n2C(=O)c1ccc(Cl)cc1 [Acemetacin]	0.156
CCOCCn1c(N2CCCN(C)CC2)nc2ccccc21 [Emedastine]	0.0346
CC1=C(C(=O)O)N2C(=O)[C@@H](NC(=O)[C@H](N)c3ccccc3)[C@H]2SC1 [Cephalexin monohydrate]	-0.0188

An excerpt from above in order of formula weight, falling:
Structure (SMILES)	log
CCCc1nc2c(C)cc(-c3nc4ccccc4n3C)cc2n1Cc1ccc(-c2ccccc2C(=O)O)cc1 [Telmisartan]	-0.0336
CC[C@@]1(O)C(=O)OCc2c1cc1n(c2=O)Cc2cc3c(CN(C)C)c(O)ccc3nc2-1 [Topotecan]	-0.415
CC(=O)NC[C@H]1CN(c2ccc(N3CCOCC3)c(F)c2)C(=O)O1 [Linezolid]	-0.117
